Source: PubChem BioAssay AID1159579 (Peter MacCallum Cancer Centre, 2015)
Here is one part, drawn at random, of about 2,000 reagents tested. Over the whole deposit, 549 (27%) are marked active. 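Some migration ratios are negative; siRNAs with too few cells are inactive whatever their migration ratio.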 Unmarked entries are inactive. The numbers tell different reagents against one gene apart. The record does not give: the time to read-out.

Screen: 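Retest candidate lymphatic endothelial migration regulators using several independent siRNAs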 (follow-up of hits)
System: human dermal lymphatic endothelial cells
Knock-down reagent: single siRNA against human genes, 25 nM
Measured: 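Scratch wound imaging measuring area filled by moving cells plus nuclei number, averaged over two wells and scaled to mock-transfected controls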
Reading the numbers: migration relative to mock: higher = more migration into the scratch; mean nuclei count: higher = more cells remaining
Hit rule: 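Called active when the migration ratio is 0.6 or lower (impaired) or 1.3 or higher (accelerated), but inactive whenever the mean nuclei count falls under 3300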
Calls: active = migration changed (impaired or accelerated); inactive = no migration change, or too few cells

migration relative to mock | migration and cell number class | mean nuclei count | gene | siRNA no.
0.28 (active) | migration reduced | 4269 | TPO | 1
0.97 | no change in migration or cell number | 6510 | TPO | 2
1.01 | no change in migration or cell number | 4473 | TPO | 3
0.44 | too few cells; migration not scored | 2802 | TPO | 4
0.69 | no change in migration or cell number | 5415 | BBS7 | 1
0.64 | no change in migration or cell number | 6002 | BBS7 | 2
0.9 | no change in migration or cell number | 5278 | BBS7 | 3
0.97 | no change in migration or cell number | 5955 | BBS7 | 4
0.78 | no change in migration or cell number | 6082 | FBXO44 | 1
0.94 | no change in migration or cell number | 7074 | FBXO44 | 2
0.6 (active) | migration reduced | 6732 | FBXO44 | 3
0.13 | too few cells; migration not scored | 2264 | FBXO44 | 4
0.84 | no change in migration or cell number | 5418 | ZNF217 | 1
1.14 | no change in migration or cell number | 5228 | ZNF217 | 2
0.67 | no change in migration or cell number | 3826 | ZNF217 | 3
0.73 | no change in migration or cell number | 5080 | ZNF217 | 4
0.93 | no change in migration or cell number | 8078 | PGLYRP4 | 1
0.96 | no change in migration or cell number | 5494 | PGLYRP4 | 2
0.22 (active) | migration reduced | 5150 | PGLYRP4 | 3
1.08 | no change in migration or cell number | 6460 | PGLYRP4 | 4
0.78 | no change in migration or cell number | 4028 | PDCL3 | 1
0.99 | no change in migration or cell number | 6140 | PDCL3 | 2
0.92 | no change in migration or cell number | 4912 | PDCL3 | 3
0.92 | no change in migration or cell number | 5534 | PDCL3 | 4
0.29 (active) | migration reduced | 4328 | CCDC102A | 1
0.7 | no change in migration or cell number | 4474 | CCDC102A | 2
1.02 | no change in migration or cell number | 4806 | CCDC102A | 3
0.98 | no change in migration or cell number | 5581 | CCDC102A | 4
0.74 | no change in migration or cell number | 5998 | PRKCG | 1
0.94 | no change in migration or cell number | 7436 | PRKCG | 2
1.1 | no change in migration or cell number | 5115 | PRKCG | 3
1.04 | no change in migration or cell number | 5788 | PRKCG | 4
0.75 | no change in migration or cell number | 5620 | SLC22A24 | 1
0.61 | no change in migration or cell number | 6726 | SLC22A24 | 2
0.57 (active) | migration reduced | 5445 | SLC22A24 | 3
1.04 | no change in migration or cell number | 6442 | SLC22A24 | 4
0.9 | no change in migration or cell number | 6836 | AP2B1 | 1
0.79 | no change in migration or cell number | 7210 | AP2B1 | 2
0.3 (active) | migration reduced | 4398 | AP2B1 | 3
1.05 | no change in migration or cell number | 7053 | AP2B1 | 4
0.79 | no change in migration or cell number | 7228 | PARP11 | 1
0.97 | no change in migration or cell number | 7332 | PARP11 | 2
0.77 | no change in migration or cell number | 6778 | PARP11 | 3
1.18 | no change in migration or cell number | 5790 | PARP11 | 4

Called active, among the entries above:
migration relative to mock | migration and cell number class | mean nuclei count | gene | siRNA no.
0.28 (active) | migration reduced | 4269 | TPO | 1
0.6 (active) | migration reduced | 6732 | FBXO44 | 3
0.22 (active) | migration reduced | 5150 | PGLYRP4 | 3
0.29 (active) | migration reduced | 4328 | CCDC102A | 1
0.57 (active) | migration reduced | 5445 | SLC22A24 | 3
0.3 (active) | migration reduced | 4398 | AP2B1 | 3

Further records follow.
migration relative to mock | migration and cell number class | mean nuclei count | gene | siRNA no.
0.74 | no change in migration or cell number | 5214 | CENPO | 1
0.88 | no change in migration or cell number | 5178 | CENPO | 2
1.08 | no change in migration or cell number | 5108 | CENPO | 3
0.41 | too few cells; migration not scored | 2483 | CENPO | 4
1.08 | no change in migration or cell number | 5902 | THBS2 | 1
1 | no change in migration or cell number | 5758 | THBS2 | 2
0.91 | no change in migration or cell number | 5626 | THBS2 | 3
0.78 | no change in migration or cell number | 5735 | THBS2 | 4
0.64 | no change in migration or cell number | 6874 | DOT1L | 1
0.29 (active) | migration reduced | 5087 | DOT1L | 2
0.51 (active) | migration reduced | 4380 | DOT1L | 3
0.61 | no change in migration or cell number | 4831 | DOT1L | 4
1.06 | no change in migration or cell number | 5283 | C18orf32 | 1
0.91 | no change in migration or cell number | 4890 | C18orf32 | 2
1.13 | no change in migration or cell number | 4212 | C18orf32 | 3
1.15 | no change in migration or cell number | 5596 | C18orf32 | 4
0.64 | no change in migration or cell number | 5946 | UHMK1 | 1
0.15 (active) | migration reduced | 4814 | UHMK1 | 2
0.52 (active) | migration reduced | 5618 | UHMK1 | 3
0.42 (active) | migration reduced | 4875 | UHMK1 | 4
0.84 | no change in migration or cell number | 7001 | MPST | 1
0.51 (active) | migration reduced | 5486 | MPST | 2
-0.56 | too few cells; migration not scored | 2119 | MPST | 3
0.74 | no change in migration or cell number | 6255 | MPST | 4
